This is an account of results in paper PMC11995443.

Sequences of proteins named here, by UniProt entry; tags and fusion partners are left off. Residues count along the entry.
UniProt P43297, residues 137-352: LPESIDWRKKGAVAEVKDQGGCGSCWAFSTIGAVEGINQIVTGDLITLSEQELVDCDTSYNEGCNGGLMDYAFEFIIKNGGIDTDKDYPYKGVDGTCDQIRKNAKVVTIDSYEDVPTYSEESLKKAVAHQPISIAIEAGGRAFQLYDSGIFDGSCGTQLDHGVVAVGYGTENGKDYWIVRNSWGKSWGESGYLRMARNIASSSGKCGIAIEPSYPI

These are yes or no findings as the source states them, for the method shown. For some assays here: In cells and extracts the contact can be indirect. Some entries that bind do so weakly or less than the wild type. For some assays here: Where a sequence is shown, tags or fusion partners need not be part of it.

One test deals with T1, OTU2-nLUC (A. thaliana) (UniProt Q9LPT6).
T1 sequence: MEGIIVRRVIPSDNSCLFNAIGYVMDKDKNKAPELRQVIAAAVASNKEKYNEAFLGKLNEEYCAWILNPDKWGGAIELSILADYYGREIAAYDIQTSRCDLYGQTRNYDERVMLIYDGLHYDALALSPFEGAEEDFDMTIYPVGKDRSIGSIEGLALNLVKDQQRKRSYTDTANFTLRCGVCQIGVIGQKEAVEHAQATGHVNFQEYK
The experiment in a line: split reporter; split-LUC: OTU2-nLUC co-expressed with RD21A-cLUC or vector control in N. benthamiana leaves; luciferin infiltrated 48 h after infiltration, luminescence imaged.

Test [1] has as its target T2, ovarian tumor domain (OTU)-containing deubiquitilating enzyme 2 (OTU2), bait in pGBKT7 (A. thaliana) (UniProt Q9LPT6).
T2 sequence: T1 sequence
The experiment in a line: two-hybrid; OTU2 (or its truncated derivatives) in pGBKT7 as bait, candidates in pGADT7 as prey; Y2H golden yeast cells; SD-Trp-Leu-His-Ade with X-alpha-Gal and aureobasidin A.

As to “mature RD21A (mRD21A) fused to cLUC (from UniProt P43297 137-352) (domain or fragment)”, the binding result with OTU2-nLUC (A. thaliana) is reported as “binds”. As to “mature RD21A (mRD21A), prey in pGADT7 (from UniProt P43297 137-352) (domain or fragment)”, in test [1], the binding result is “binds”.
